# Source: PubChem BioAssay AID590 (National Center for Advancing Translational Sciences (NCATS), 2007)
# About 6,500 (11%) of roughly 59,000 compounds were called active. The inconclusive results got no clear call from the source; some entries with a clear call stand among them for comparison. Cut-off read from the data, not from the text of the source: active = max dye-equivalent concentration above about 10 nM; inconclusive = mostly about 1.1 nM to 9.6 nM; inactive = weaker than that.
# Experiment: qHTS Assay for Spectroscopic Profiling in A350 Spectral Region
# Conditions: Compound autofluorescence, 340/450 nm, Alexa 350 dye-equivalents; hits give high values
row,Structure (SMILES),max dye-equivalent concentration
1,Cc1cccc(N(CC(O)CN(C)C)S(=O)(=O)c2ccccc2)c1 (configuration not stated),inactive
2,O=S(=O)(c1ccc(OCC(O)CN2CCN(c3ccccc3)CC2)cc1)N1CCOCC1 (configuration not stated),inactive
3,COc1ccc(CCNC(=O)C2CCN(S(=O)(=O)c3cccc4nsnc34)CC2)cc1OC,inconclusive: 3.5 nM
4,CCOC(=O)C1CCCN(c2ncnc3c2[nH]c2cccc(OC)c23)C1 (configuration not stated),active: 680 nM
5,CCC(C)(C)n1nnnc1C(c1ccc(C)cc1)N1CCN(Cc2cccnc2)CC1 (configuration not stated),inconclusive: 1.2 nM
6,COc1ccc(OC)c2[nH]c(=O)c(CCNS(=O)(=O)c3ccccc3)cc12,inconclusive: 7.5 nM
7,Cc1oc2cc(OCC(=O)O)ccc2c(=O)c1Oc1ccccc1,inconclusive: 9.1 nM
8,COC(=O)c1ccc(CSc2nc3ccccc3o2)cc1,inconclusive: 1.2 nM
9,COc1cccc(CNCCOCCO)c1OC,inconclusive: 4.6 nM
10,Cc1cnc(CNc2ncncc2-c2ccccc2Cl)cn1,inactive
11,Nc1nnc(SCC(=O)NC2CCCCC2)n1-c1ccccc1,inactive
12,COCC(=O)N1CCC[C@@]2(CCN(C(=O)Nc3cccc(F)c3)C2)C1,inactive
13,CCOC(=O)N1CCN(c2ncnc3c2[nH]c2ccc(OC)cc23)CC1,active: 160 nM
14,Cc1cc(=O)oc2cc(O)c(CN(C)CC(=O)O)cc12,active: 9400 nM
15,CCOC(=O)c1ccc(N2C(=O)c3n[nH]c(C)c3C2c2ccc(OC)c(OC)c2)cc1 (configuration not stated),inconclusive: 5.2 nM
16,O=C1CCC(=O)N1CCCCCc1nc(-c2ccccc2)no1,inconclusive: 1.4 nM
17,COc1ccc(C2=CC(c3ccc(C)cc3)n3nnnc3N2)cc1 (configuration not stated),active: 42 nM
18,O[Si@](CCCN1CCCCC1)(c1ccc(F)cc1)C1CCCCC1,inactive
19,Cc1cc(C)c2nc(SCC(=O)N3CCCCC3)c(C#N)cc2c1,inconclusive: 3.9 nM
20,O=C1C(Cl)=C(NCC2CCCO2)C(=O)N1Cc1ccccc1 (configuration not stated),inactive
21,Cn1c(=O)c2c(ncn2C[C@@H](O)CO)n(C)c1=O,inactive
22,FC(F)(F)c1nnc2ccc(N3CCOCC3)nn12,inconclusive: 1.8 nM
23,COc1cc(C2C3C(=O)N(c4ccccc4)C(=O)C3ON2c2ccccc2)ccc1O (configuration not stated),inactive
24,O=C(NCCNCCO)c1c(O)c2cccc3c2n(c1=O)CCC3,inconclusive: 3.1 nM
25,COCC(=O)N1CCC2(CCN(Cc3ccccc3)CC2)CC1,inactive
26,CCCCn1nc(C(=O)O)ccc1=O,inconclusive: 4.1 nM
27,CCCOC(=O)C1C2C=C[C@]3(CN(CCc4ccccc4)C(=O)[C@H]13)O2 (some centres not stated),active: 25 nM

# Gathered by group: the entries above containing a Cl atom
row,Structure (SMILES),max dye-equivalent concentration
10,Cc1cnc(CNc2ncncc2-c2ccccc2Cl)cn1,inactive
20,O=C1C(Cl)=C(NCC2CCCO2)C(=O)N1Cc1ccccc1 (configuration not stated),inactive
